Measured values: publication PMC8509428, “The Phenoxyalkyltriazine Antagonists for 5-HT6 Receptor with Promising Procognitive and Pharmacokinetic Properties In Vivo in Search for a Novel Therapeutic Approach to Dementia Diseases” (International Journal of Molecular Sciences, 2021)

Amino acid sequences for entries named in this document (tags omitted).
UniProt P50406, whole entry: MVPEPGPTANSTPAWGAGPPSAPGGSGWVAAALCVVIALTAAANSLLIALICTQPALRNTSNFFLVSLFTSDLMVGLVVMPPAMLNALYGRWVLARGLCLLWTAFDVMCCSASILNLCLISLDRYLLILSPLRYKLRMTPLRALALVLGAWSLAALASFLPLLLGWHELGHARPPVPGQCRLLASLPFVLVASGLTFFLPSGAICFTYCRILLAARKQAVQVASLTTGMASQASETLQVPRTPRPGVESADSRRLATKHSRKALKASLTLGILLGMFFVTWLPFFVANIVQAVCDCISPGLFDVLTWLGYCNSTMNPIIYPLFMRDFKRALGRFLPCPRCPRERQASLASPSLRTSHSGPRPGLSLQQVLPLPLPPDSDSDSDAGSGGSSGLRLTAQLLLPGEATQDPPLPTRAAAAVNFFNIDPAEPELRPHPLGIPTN

Target: human serotonin 5-HT6 receptor (Homo sapiens, UniProt P50406)
Test: Functional assay for 5-HT6 receptor (cAMP, 1321N1 cells)

5-HT6 Antagonist Mode pIC50 (Table S1): 8.22
IC50 (read-out: 5-HT6 Antagonist Mode IC50, Table S1): 6 nM
Kb (read-out: 5-HT6 Antagonist Mode Kb, Table S1): 1.2 nM
5-HT6R Antagonist Mode pKb (± SEM, normalized to SB258585 10^−5 M): 8.92 ± 0.10
SMILES: COc1ccc(NS(=O)(=O)c2ccc(I)cc2)cc1N1CCN(C)CC1 [SB258585]
